The source of these data is the supplement of paper PMC12067093, “Discovery and optimisation of a covalent ligand for TRIM25 and its application to targeted protein ubiquitination” (Chemical Science, 2025).

Amino acid sequences for entries named in this document (tags omitted). A change or cut given only in a name is not applied to a line headed by its entry.
UniProt Q9BYV8: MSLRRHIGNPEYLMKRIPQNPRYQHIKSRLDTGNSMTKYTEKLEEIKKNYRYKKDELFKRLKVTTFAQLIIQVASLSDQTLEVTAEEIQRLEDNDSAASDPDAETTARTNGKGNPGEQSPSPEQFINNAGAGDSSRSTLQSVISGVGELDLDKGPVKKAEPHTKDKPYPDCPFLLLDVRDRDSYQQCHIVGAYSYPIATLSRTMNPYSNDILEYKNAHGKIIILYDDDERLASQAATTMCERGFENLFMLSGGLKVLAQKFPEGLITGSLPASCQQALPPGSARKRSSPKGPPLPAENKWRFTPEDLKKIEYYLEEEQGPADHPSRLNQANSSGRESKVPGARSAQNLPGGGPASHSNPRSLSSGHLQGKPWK
UniProt Q8IW35: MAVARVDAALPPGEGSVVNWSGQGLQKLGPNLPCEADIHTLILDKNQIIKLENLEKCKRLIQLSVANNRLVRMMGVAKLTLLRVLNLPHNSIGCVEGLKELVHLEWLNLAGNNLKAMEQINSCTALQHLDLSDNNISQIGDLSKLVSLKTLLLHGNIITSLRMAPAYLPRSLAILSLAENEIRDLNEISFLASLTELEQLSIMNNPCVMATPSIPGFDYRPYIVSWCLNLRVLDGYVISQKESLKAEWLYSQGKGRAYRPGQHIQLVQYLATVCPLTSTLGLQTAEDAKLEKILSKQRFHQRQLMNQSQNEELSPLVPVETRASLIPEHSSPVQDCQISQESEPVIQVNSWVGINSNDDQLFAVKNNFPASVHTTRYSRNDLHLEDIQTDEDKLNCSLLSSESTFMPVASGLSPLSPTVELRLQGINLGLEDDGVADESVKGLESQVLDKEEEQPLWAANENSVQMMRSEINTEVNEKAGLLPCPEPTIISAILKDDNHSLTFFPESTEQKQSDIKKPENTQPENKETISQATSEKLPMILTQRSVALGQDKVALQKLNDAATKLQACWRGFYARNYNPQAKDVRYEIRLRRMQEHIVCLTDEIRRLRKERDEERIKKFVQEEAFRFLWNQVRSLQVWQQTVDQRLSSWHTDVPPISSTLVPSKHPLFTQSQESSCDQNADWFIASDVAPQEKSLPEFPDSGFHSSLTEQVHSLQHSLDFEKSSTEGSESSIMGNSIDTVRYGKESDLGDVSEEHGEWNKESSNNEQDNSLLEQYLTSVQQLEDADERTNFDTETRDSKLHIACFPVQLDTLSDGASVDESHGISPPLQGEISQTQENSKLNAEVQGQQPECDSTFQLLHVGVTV

Some of the results follow.

Holding throughout (assay): probe-labelled cysteine peptide fold change vs DMSO (competition) (log2 fold change); higher = less target engagement (more negative = stronger competition)
Holding throughout (conditions): THP-1, incubation time: 4 h

The target of experiment [1] is CEP41_Q9BYV8_187_DRDSYQQCHIVGAYSYPIATLSR (UniProt Q9BYV8).
The target of experiment [2] is CEP97_Q8IW35_599_MQEHIVCLTDEIR (UniProt Q8IW35).
Experiment [3] addresses CEP97_Q8IW35_599_MQEHIVCLTDEIRR (UniProt Q8IW35).
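Note: competitive profiling in live THP-1 cells: cysteine peptides tagged with an iodoacetamide desthiobiotin (IA-DTB) probe, intensity after compound treatment relative to DMSO-treated cells.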

As for `Cc1cc(C(=O)N2CCCN(C(=O)CCl)CC2)ccc1-c1ccccc1` [compound 10], the “probe-labelled cysteine peptide fold change” value is 0.126 in experiment [1] (10 µM); 0.106 in experiment [1] (50 µM); -0.0881 in experiment [2] (10 µM); -0.293 in experiment [2] (50 µM); -0.179 in experiment [3] (10 µM); -0.741 in experiment [3] (50 µM).
